Laboratory results taken from publication doi:10.1101/2021.12.08.471875.
Where two headings read alike, the source gives them in different places. These are yes or no findings as the source states them, for the method shown. Binding seen in cells or lysates may run through a third protein. These calls come from enrichment with a bait or labelling near it, and not all partners need be listed. For some assays here: A no says only that the protein was not detected with the bait.

Amino acid sequences for entries named in this document (tags omitted).
UniProt P0ACB0: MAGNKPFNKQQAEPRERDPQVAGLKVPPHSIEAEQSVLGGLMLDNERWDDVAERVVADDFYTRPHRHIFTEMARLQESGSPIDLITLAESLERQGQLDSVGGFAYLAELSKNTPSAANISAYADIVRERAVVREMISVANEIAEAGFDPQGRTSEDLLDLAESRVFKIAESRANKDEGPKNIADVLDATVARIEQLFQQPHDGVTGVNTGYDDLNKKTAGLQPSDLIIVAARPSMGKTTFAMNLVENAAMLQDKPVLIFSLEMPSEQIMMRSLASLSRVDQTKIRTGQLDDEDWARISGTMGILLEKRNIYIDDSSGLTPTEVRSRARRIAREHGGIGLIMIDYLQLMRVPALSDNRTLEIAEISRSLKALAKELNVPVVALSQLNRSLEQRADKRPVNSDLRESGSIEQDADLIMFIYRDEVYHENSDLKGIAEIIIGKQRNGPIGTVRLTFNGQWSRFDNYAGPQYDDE
UniProt P28632: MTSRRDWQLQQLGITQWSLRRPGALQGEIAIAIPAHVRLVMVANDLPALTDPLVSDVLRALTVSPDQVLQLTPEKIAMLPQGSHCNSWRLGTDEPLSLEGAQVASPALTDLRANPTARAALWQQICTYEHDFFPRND
UniProt P0ABS5: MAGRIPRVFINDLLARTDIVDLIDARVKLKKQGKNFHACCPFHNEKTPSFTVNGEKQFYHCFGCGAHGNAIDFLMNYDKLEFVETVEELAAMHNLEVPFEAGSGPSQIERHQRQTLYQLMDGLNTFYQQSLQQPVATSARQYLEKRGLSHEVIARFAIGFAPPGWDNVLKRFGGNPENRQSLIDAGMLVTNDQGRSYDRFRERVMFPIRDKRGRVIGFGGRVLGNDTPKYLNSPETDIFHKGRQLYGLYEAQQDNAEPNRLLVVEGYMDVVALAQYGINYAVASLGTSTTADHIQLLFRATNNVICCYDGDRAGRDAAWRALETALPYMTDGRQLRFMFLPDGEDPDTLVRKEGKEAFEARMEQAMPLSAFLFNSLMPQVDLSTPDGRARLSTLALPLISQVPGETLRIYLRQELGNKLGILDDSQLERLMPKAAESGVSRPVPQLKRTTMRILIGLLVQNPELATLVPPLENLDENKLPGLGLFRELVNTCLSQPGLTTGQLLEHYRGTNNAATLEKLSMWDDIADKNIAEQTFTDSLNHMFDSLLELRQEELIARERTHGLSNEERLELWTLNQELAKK
UniProt P21513: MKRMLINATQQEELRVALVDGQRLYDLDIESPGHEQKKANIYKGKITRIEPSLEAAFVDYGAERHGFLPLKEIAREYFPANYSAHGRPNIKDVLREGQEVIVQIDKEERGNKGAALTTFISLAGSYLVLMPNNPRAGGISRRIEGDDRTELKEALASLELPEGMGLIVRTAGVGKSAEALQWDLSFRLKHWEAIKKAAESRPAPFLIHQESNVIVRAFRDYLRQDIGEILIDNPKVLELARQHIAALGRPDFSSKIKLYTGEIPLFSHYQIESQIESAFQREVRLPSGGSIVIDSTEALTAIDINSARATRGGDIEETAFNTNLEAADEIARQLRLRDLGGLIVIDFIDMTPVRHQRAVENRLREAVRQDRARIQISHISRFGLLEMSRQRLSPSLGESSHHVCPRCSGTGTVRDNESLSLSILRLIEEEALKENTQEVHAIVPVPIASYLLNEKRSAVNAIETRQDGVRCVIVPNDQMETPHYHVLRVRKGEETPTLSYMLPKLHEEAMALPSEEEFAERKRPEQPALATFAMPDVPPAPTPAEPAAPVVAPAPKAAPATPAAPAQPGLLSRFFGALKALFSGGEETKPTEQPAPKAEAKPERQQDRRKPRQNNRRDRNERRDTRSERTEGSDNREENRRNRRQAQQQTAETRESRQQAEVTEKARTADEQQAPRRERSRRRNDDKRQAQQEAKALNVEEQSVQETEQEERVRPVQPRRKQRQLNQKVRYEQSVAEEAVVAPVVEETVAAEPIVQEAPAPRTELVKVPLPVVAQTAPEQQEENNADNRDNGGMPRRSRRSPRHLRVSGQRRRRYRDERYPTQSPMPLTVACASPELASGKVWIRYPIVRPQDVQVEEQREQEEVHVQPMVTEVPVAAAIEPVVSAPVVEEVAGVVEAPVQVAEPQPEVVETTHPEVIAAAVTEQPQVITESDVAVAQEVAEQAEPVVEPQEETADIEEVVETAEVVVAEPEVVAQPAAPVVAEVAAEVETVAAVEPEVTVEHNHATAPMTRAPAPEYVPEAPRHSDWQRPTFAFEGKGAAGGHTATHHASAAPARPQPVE
UniProt P56258: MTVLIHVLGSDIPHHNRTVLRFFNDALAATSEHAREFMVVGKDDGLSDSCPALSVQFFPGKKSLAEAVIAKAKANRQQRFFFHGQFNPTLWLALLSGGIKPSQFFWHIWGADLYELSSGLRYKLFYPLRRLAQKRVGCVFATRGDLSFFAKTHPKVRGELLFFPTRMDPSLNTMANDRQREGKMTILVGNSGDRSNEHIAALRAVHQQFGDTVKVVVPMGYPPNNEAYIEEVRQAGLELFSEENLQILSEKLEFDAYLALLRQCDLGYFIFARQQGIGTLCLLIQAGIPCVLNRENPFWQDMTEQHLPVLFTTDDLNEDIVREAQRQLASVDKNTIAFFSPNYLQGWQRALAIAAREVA
UniProt P0AB89: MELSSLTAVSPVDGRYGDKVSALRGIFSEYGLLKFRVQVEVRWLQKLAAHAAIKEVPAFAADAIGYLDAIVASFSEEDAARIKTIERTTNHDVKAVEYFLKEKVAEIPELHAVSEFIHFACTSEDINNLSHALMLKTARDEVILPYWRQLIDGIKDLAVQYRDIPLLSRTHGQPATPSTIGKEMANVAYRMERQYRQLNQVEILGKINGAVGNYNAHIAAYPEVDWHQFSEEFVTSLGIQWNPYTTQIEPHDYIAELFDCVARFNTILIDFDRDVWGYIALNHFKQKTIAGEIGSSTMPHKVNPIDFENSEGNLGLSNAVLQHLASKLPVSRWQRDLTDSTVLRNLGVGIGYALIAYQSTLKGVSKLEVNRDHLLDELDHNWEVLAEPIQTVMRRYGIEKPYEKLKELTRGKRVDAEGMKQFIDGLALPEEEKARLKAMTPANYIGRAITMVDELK
UniProt P09980: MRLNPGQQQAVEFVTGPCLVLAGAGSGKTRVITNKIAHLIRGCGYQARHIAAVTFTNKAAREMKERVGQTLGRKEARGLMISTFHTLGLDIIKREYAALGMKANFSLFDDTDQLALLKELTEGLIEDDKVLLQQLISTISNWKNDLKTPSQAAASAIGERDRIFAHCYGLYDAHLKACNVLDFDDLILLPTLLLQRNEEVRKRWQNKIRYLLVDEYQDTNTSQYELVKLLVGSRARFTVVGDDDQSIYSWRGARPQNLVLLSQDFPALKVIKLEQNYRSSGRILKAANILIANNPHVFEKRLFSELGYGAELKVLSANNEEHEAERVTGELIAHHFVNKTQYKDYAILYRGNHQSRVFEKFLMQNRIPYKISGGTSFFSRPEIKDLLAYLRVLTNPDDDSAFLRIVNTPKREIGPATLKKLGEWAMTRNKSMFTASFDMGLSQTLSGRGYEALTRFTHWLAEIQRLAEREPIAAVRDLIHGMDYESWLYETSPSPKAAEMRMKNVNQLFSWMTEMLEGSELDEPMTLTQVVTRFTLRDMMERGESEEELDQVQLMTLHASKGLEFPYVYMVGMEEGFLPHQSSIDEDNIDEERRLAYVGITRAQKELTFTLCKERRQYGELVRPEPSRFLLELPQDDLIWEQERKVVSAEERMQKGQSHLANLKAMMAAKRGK

Columns and labels:
Assay in all cases: affinity purification with mass spectrometry
SeqA (E. coli) [1] = target: T1, SeqA (E. coli) (UniProt P0AFY8)
T1 sequence: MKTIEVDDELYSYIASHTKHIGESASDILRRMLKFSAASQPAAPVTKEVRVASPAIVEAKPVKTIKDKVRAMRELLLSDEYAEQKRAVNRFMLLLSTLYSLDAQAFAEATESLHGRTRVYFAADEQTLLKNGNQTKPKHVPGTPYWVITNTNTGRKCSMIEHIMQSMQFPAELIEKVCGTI

DnaB (E. coli) [2] = target: DnaB (E. coli) (UniProt P0ACB0)
HolD (E. coli) [3] = target: HolD (E. coli) (UniProt P28632)
SeqA (E. coli) [4] = target: T1, SeqA (E. coli); remark: listed apart in the source
DnaB (E. coli) [5] = target: DnaB (E. coli) (UniProt P0ACB0); remark: listed apart in the source
DnaG (E. coli) = DnaG (E. coli) (UniProt P0ABS5)
[6] = target: T2, NrdB, a ribonuclotide reductase (RNR) subunit (E. coli) (UniProt P69924)
T2 sequence: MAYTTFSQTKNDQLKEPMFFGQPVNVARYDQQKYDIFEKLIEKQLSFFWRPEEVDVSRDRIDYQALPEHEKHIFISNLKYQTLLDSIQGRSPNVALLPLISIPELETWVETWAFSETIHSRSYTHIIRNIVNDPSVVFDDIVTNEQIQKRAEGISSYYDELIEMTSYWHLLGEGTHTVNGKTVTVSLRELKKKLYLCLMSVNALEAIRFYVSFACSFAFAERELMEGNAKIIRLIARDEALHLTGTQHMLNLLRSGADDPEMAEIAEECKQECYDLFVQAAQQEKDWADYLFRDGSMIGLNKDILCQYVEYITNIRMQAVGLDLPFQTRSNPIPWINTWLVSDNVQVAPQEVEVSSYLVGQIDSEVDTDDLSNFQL

HolD (E. coli) [7] = target: HolD (E. coli) (UniProt P28632); remark: listed apart in the source

DnaG (from UniProt P0ABS5 1-581)
binding (SeqA (E. coli) [1]): binds

RNase E (Rne) (from UniProt P21513 1-1061) (enzyme)
binding (DnaB (E. coli) [2]): binds

DnaB (from UniProt P0ACB0 1-471)
binding (SeqA (E. coli) [1]): no binding

WecF (from UniProt P56258 1-359) (enzyme)
binding (HolD (E. coli) [3]): binds

PurB (from UniProt P0AB89 1-456) (enzyme)
binding (HolD (E. coli) [3]): binds

Rep (from UniProt P09980 1-673)
binding (DnaB (E. coli) [2]): binds

B1: polyphosphate kinase (Ppk) (enzyme, UniProt P0A7B1 1-688)
chain: MGQEKLYIEKELSWLSFNERVLQEAADKSNPLIERMRFLGIYSNNLDEFYKVRFAELKRRIIISEEQGSNSHSRHLLGKIQSRVLKADQEFDGLYNELLLEMARNQIFLINERQLSVNQQNWLRHYFKQYLRQHITPILINPDTDLVQFLKDDYTYLAVEIIRGDTIRYALLEIPSDKVPRFVNLPPEAPRRRKPMILLDNILRYCLDDIFKGFFDYDALNAYSMKMTRDAEYDLVHEMEASLMELMSSSLKQRLTAEPVRFVYQRDMPNALVEVLREKLTISRYDSIVPGGRYHNFKDFINFPNVGKANLVNKPLPRLRHIWFDKAQFRNGFDAIRERDVLLYYPYHTFEHVLELLRQASFDPSVLAIKINIYRVAKDSRIIDSMIHAAHNGKKVTVVVELQARFDEEANIHWAKRLTEAGVHVIFSAPGLKIHAKLFLISRKENGEVVRYAHIGTGNFNEKTARLYTDYSLLTADARITNEVRRVFNFIENPYRPVTFDYLMVSPQNSRRLLYEMVDREIANAQQGLPSGITLKLNNLVDKGLVDRLYAASSSGVPVNLLVRGMCSLIPNLEGISDNIRAISIVDRYLEHDRVYIFENGGDKKVYLSSADWMTRNIDYRIEVATPLLDPRLKQRVLDIIDILFSDTVKARYIDKELSNRYVPRGNRRKVRAQLAIYDYIKSLEQPE
binding (SeqA (E. coli) [4]): binds | binding (DnaB (E. coli) [5]): binds

B2: SeqA (protein, UniProt P0AFY8 1-181)
chain: T1 sequence
binding (DnaG (E. coli)): binds

B3: RhlB (enzyme, UniProt P0A8J8 1-421)
chain: MSKTHLTEQKFSDFALHPKVVEALEKKGFHNCTPIQALALPLTLAGRDVAGQAQTGTGKTMAFLTSTFHYLLSHPAIADRKVNQPRALIMAPTRELAVQIHADAEPLAEATGLKLGLAYGGDGYDKQLKVLESGVDILIGTTGRLIDYAKQNHINLGAIQVVVLDEADRMYDLGFIKDIRWLFRRMPPANQRLNMLFSATLSYRVRELAFEQMNNAEYIEVEPEQKTGHRIKEELFYPSNEEKMRLLQTLIEEEWPDRAIIFANTKHRCEEIWGHLAADGHRVGLLTGDVAQKKRLRILDEFTRGDLDILVATDVAARGLHIPAVTHVFNYDLPDDCEDYVHRIGRTGRAGASGHSISLACEEYALNLPAIETYIGHSIPVSKYNPDALMTDLPKPLRLTRPRTGNGPRRTGAPRNRRRSG
binding (DnaB (E. coli) [5]): binds

B4: SrmB (enzyme, UniProt P21507 1-444)
chain: MTVTTFSELELDESLLEALQDKGFTRPTAIQAAAIPPALDGRDVLGSAPTGTGKTAAYLLPALQHLLDFPRKKSGPPRILILTPTRELAMQVSDHARELAKHTHLDIATITGGVAYMNHAEVFSENQDIVVATTGRLLQYIKEENFDCRAVETLILDEADRMLDMGFAQDIEHIAGETRWRKQTLLFSATLEGDAIQDFAERLLEDPVEVSANPSTRERKKIHQWYYRADDLEHKTALLVHLLKQPEATRSIVFVRKRERVHELANWLREAGINNCYLEGEMVQGKRNEAIKRLTEGRVNVLVATDVAARGIDIPDVSHVFNFDMPRSGDTYLHRIGRTARAGRKGTAISLVEAHDHLLLGKVGRYIEEPIKARVIDELRPKTRAPSEKQTGKPSKKVLAKRAEKKKAKEKEKPRVKKRHRDTKNIGKRRKPSGTGVPPQTTEE
binding (SeqA (E. coli) [4]): binds | binding (DnaG (E. coli)): binds

B5: RfaF (enzyme, UniProt P37692 1-348)
chain: MKILVIGPSWVGDMMMSQSLYRTLQARYPQAIIDVMAPAWCRPLLSRMPEVNEAIPMPLGHGALEIGERRKLGHSLREKRYDRAYVLPNSFKSALVPFFAGIPHRTGWRGEMRYGLLNDVRVLDKEAWPLMVERYIALAYDKGIMRTAQDLPQPLLWPQLQVSEGEKSYTCNQFSLSSERPMIGFCPGAEFGPAKRWPHYHYAELAKQLIDEGYQVVLFGSAKDHEAGNEILAALNTEQQAWCRNLAGETQLDQAVILIAACKAIVTNDSGLMHVAAALNRPLVALYGPSSPDFTPPLSHKARVIRLITGYHKVRKGDAAEGYHQSLIDITPQRVLEELNALLLQEEA
binding [6]: binds | binding (SeqA (E. coli) [4]): binds | binding (DnaB (E. coli) [5]): binds | binding (HolD (E. coli) [7]): binds

B6: DnaC (protein, UniProt P0AEF0 1-245)
chain: MKNVGDLMQRLQKMMPAHIKPAFKTGEELLAWQKEQGAIRSAALERENRAMKMQRTFNRSGIRPLHQNCSFENYRVECEGQMNALSKARQYVEEFDGNIASFIFSGKPGTGKNHLAAAICNELLLRGKSVLIITVADIMSAMKDTFRNSGTSEEQLLNDLSNVDLLVIDEIGVQTESKYEKVIINQIVDRRSSSKRPTGMLTNSNMEEMTKLLGERVMDRMRLGNSLWVIFNWDSYRSRVTGKEY
binding (DnaB (E. coli) [5]): binds
